Patent US6174858A (Merck & Co., Inc., priority 1998, dated 2001)

Assay: general procedure: Fmoc solid-phase peptide synthesis; Fmoc-Ser(t-Bu)-WANG resin loaded at 0.82 mmol/g; DCC and HOBt
Details: conjugation step, analytical HPLC (system A), acetate salt

## des- Acetylvinblastine-40-(N-Acetyl-4-trans-L-Hyp-Ser-Ser Chg-Gln-Ser-Ser-Pro) ester
  final HPLC purity: 98.9%
